Values from PubChem BioAssay AID504791 (Drosophila RNAi Screening Center, 2011).

Test: 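Genes whose knock-down strengthens or weakens small-RNA reporter silencing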 (primary screen)
Cell system: Drosophila S2-derived reporter cells
Reagents: long dsRNA against Drosophila genes, about 150-250 ng dsRNA per well (siRNA assay); about 80-120 ng (miRNA assay)
Timing: about 5 days (siRNA assay); about 4 days (miRNA assay)
Challenge: copper sulfate induction of reporters: 25 µM (siRNA assay); 200 mM stated (miRNA assay), 1-2 days before reading
Measurement: 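Per-well ratio of Renilla over firefly light, expressed relative to that plate's average ratio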
Rule for the call: 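a well was a first-pass pick when its plate-scaled ratio rose above 1.5 (siRNA assay) or 1.6 (miRNA assay), or dropped below 0.6; a gene counted only if two separate dsRNAs agreed on retest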
In all, the deposit lists about 23,000 reagents; shown is a random part of those with a known target gene and a result. Of all reagents, 199 (0.86%) got an active call. 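Plate-scaled ratios behind the calls are not deposited; printed light signals are raw; many rows marked increased or decreased are still called inactive.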 Names joined by + are all predicted targets of the reagent. Not stated in the record: the direction of the score.

predicted target,PubChem SID,stable siRNA reporter change,miRNA reporter change,"stable assay Renilla, run 1 (luminescence)","stable assay firefly, run 1 (luminescence)",outcome
t-cup,SID104181046,,,5722,4.66e5,inactive
CG10154,SID104189499,,,6039,3.65e5,inactive
CG14111,SID104189906,,,5248,2.92e5,inactive
CG32795,SID104198401,,,5951,4.12e5,inactive
CG32795,SID104198402,,,5962,3.50e5,inactive
CG12493,SID104188071,,,11585,5.01e5,inactive
msd5,SID104188352,,,6338,3.18e5,inactive
CG2321,SID104195231,,,8227,5.11e5,inactive
List,SID104186312,,,6388,2.38e5,inactive
Lsd-1,SID104194028,,,10047,3.38e5,inactive
fig,SID104196062,,,5007,3.53e5,inactive
CG8701,SID104187029,,,8478,4.25e5,inactive
CG3436,SID104180397,,reporter ratio lowered past the hit cutoff,10346,7.38e5,inactive
dah,SID104200112,,,9246,6.57e5,inactive
Ada2b,SID104196323,,,6746,5.03e5,inactive
Gr63a,SID104188230,,,7259,4.73e5,inactive
CG31368,SID104194741,,,8714,5.67e5,inactive
CG31368,SID104194743,,,9305,4.86e5,inactive
CG14006,SID104182130,,,7183,3.63e5,inactive
Arl8,SID104196126,,,7299,4.72e5,inactive
Spt5,SID104187348,reporter ratio lowered past the hit cutoff,reporter ratio lowered past the hit cutoff,5563,5.15e5,active
ktub,SID104184343,,,28885,1.30e6,inactive
Rab14,SID104183195,,,59310,1.67e6,inactive
pim,SID104183383,,,59202,8.72e5,inactive
CG32833,SID104184388,,,1.58e5,5.53e5,inactive
ATP7,SID104199611,,,7070,5.41e5,inactive
Imp,SID104198653,,,5059,4.03e5,inactive
Imp,SID104200047,,,6635,3.63e5,inactive
SA2,SID104188177,,,7924,5.05e5,inactive
CG18130,SID104199582,,,5918,5.61e5,inactive
Asator,SID104196928,,,5978,2.97e5,inactive
CR14117,SID104189913,,,6955,4.52e5,inactive
CG42493,SID104185101,,,5311,4.81e5,inactive
CG2794,SID104180326,,,7933,6.04e5,inactive
Sidpn,SID104181848,,,7338,1.50e6,inactive
CG4815,SID104195445,,,5890,3.57e5,inactive
CG33453,SID104185574,,,5206,4.00e5,inactive
Amy-p,SID104186578,,,6983,3.47e5,inactive
CG13250,SID104191490,,,6587,3.64e5,inactive
l(2)dtl,SID104184489,reporter ratio lowered past the hit cutoff,,7807,9.75e5,inactive
CG3223,SID104195260,,,7283,3.92e5,inactive
CG5805,SID104195670,,,7817,3.70e5,inactive
Rrp5,SID104195654,,,8967,3.75e5,inactive
tplus3a + tplus3b,SID104183479,,,6530,3.41e5,inactive
Ir100a,SID104194121,,,3899,3.77e5,inactive
Ciao1,SID104185962,,,8396,4.61e5,inactive
Atg1,SID104189601,,,7284,4.35e5,inactive
Atg1,SID104189602,,,6551,4.43e5,inactive
CG18547,SID104195137,,,7391,4.21e5,inactive
ND-B14.5B,SID104180138,,,7346,4.16e5,inactive
Or71a,SID104191036,,,7938,3.55e5,inactive
PIG-Wa,SID104180520,,,7886,3.78e5,inactive
CG5421,SID104182650,,,7435,4.67e5,inactive
CG4882,SID104184287,,,5671,4.19e5,inactive
CG9782,SID104198937,,,5191,4.15e5,inactive
CG9782,SID104200001,,,6256,5.20e5,inactive
LysD + LysB + LysC (retired record),SID104201041,,,5950,4.49e5,inactive
CG9886,SID104180524,,,11066,5.99e5,inactive
Hug,SID104196761,,,6878,4.42e5,inactive
Vsx2,SID104197189,,,3232,3.42e5,inactive
Vsx2,SID104197879,,reporter ratio raised past the hit cutoff,4931,2.51e5,inactive
Vsx2,SID104197880,,,5195,4.21e5,inactive
Vsx2,SID104197881,,,4503,3.06e5,inactive
Vsx2,SID104202446,,,3944,2.73e5,inactive
Vsx2,SID104202630,,,3347,3.02e5,inactive
CG42812 + CG42811,SID104195159,,,6166,2.96e5,inactive
CG42812 + CG42811,SID104195160,,,6031,3.09e5,inactive
CG11313,SID104194087,,,6403,3.77e5,inactive
GMF,SID104181720,,,47224,1.67e6,inactive
CG15019,SID104188265,reporter ratio lowered past the hit cutoff,,5600,6.18e5,inactive
CG33752,SID104185143,,,6335,3.40e5,inactive
mbf1,SID104191157,,,9626,4.97e5,inactive
CG42450,SID104199814,,,5483,3.77e5,inactive
CG42450,SID104202122,,,4918,3.66e5,inactive
Act5C,SID104197515,,,6539,5.09e5,inactive
Xbp1,SID104184345,,,2520,3.27e5,inactive
Xbp1,SID104201319,,,8883,4.84e5,inactive
RpL28 + snoRNA:Or-CD12,SID104188085,,,5214,2.57e5,inactive
CanA1,SID104196392,,,7427,3.20e5,inactive
bcd,SID104192416,,,7986,3.49e5,inactive
mRpS34,SID104189710,,,7160,4.12e5,inactive
fs(1)Yb,SID104198569,,,6184,4.02e5,inactive
unc-45,SID104195241,,,6891,4.63e5,inactive

In a second layout: results already given.
predicted target	PubChem SID	stable siRNA reporter change	miRNA reporter change	stable assay Renilla, run 1 (luminescence)	stable assay firefly, run 1 (luminescence)	outcome
Atg1	SID104189602			6551	4.43e5	inactive
CG18547	SID104195137			7391	4.21e5	inactive
ND-B14.5B	SID104180138			7346	4.16e5	inactive
Or71a	SID104191036			7938	3.55e5	inactive
PIG-Wa	SID104180520			7886	3.78e5	inactive
CG5421	SID104182650			7435	4.67e5	inactive
CG4882	SID104184287			5671	4.19e5	inactive
CG9782	SID104198937			5191	4.15e5	inactive
CG9782	SID104200001			6256	5.20e5	inactive
LysD + LysB + LysC (retired record)	SID104201041			5950	4.49e5	inactive
CG9886	SID104180524			11066	5.99e5	inactive
Hug	SID104196761			6878	4.42e5	inactive
